Our source for the binding values is article PMC3185054.

Positions count from the first letter of the chain named. Names may count otherwise. These are yes or no findings as the source states them, for the method shown. In cells and extracts the contact can be indirect. Some binding calls cover weakened binding; strength is not graded here. Where a sequence is shown, tags or fusion partners need not be part of it.

Test [1] deals with T1, ABCG2 (breast cancer resistance protein), wild type, tagged N-terminally with fragments of venus YFP (human), Q9UNQ0.
T1 chain: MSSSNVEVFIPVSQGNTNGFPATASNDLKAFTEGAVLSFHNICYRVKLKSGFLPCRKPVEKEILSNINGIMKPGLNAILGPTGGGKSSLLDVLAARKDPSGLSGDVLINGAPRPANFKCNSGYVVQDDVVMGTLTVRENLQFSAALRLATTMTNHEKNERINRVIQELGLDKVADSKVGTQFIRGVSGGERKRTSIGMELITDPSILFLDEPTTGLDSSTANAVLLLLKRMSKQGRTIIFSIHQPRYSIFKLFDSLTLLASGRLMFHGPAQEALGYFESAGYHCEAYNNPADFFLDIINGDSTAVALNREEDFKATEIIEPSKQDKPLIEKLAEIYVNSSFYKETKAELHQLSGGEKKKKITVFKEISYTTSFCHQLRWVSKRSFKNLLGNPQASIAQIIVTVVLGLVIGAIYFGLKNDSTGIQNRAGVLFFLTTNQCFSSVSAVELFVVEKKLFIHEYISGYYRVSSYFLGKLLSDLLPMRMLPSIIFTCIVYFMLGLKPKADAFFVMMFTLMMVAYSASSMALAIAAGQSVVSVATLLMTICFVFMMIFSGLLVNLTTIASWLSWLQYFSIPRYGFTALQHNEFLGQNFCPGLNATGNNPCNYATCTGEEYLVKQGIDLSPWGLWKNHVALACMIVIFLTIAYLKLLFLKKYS
Put plainly: split reporter; venus YFP BiFC in transiently co-transfected HEK293T cells at 37°C; read by flow cytometry, live cell imaging and fluorescence microscopy of fixed cells; single transfections as negative controls. As to conditions: remark: other sources report otherwise. Background: A flow cytometer gives signals particle by particle.

The target of test [2] is T1, ABCG2 (breast cancer resistance …). Put plainly: split reporter; venus YFP BiFC in HEK293T cells transfected in 96-well plates, live cells imaged 48 hours after transfection on an ImageXpress Micro system; percentage of BiFC positive cells and mean BiFC intensity by automated image analysis. As to conditions: remark: other sources report otherwise.
Test [3] deals with ABCG2 E211Q (Walker-B glutamate mutant), tagged N-terminally with fragments of venus YFP (human) (UniProt Q9UNQ0). Described as above.
Test [4] has as its target ABCG2 C603A, tagged N-terminally with fragments of venus YFP (human) (UniProt Q9UNQ0). The test is described as above.

B1: ABCG2 (breast cancer resistance protein), wild type, tagged N-terminally with fragments of venus YFP, Q9UNQ0 1-655 (protein)
chain: T1 chain
Regarding B1, the binding entry in test [1] and in test [2] was “binds” in each case.

B2: ABCG2 E211Q (Walker-B glutamate mutant), tagged N-terminally with fragments of venus YFP (protein, UniProt Q9UNQ0 1-655)
chain: T1 chain with E211Q
Regarding B2, the binding result in test [3] was “binds”.

B3: ABCG2 C603A, tagged N-terminally with fragments of venus YFP (protein, UniProt Q9UNQ0 1-655)
chain: T1 chain with C603A
For B3, the binding entry in test [4] is recorded as “binds”.
